Data taken from publication PMC9246715, “Bacillus subtilis biofilm matrix components target seed oil bodies to promote growth and anti-fungal resistance in melon” (Nature Microbiology, 2022).
These are yes or no findings as the source states them, for the method shown. Binding calls can cover weak binding; strength is not graded here. For some assays here: Binding seen in cells or lysates may run through a third protein. Each block holds one molecule with its values, some of them ahead of it.

Experiments:
[1] = target: T1, amyloid protein TasA (B. subtilis) (UniProt P54507); test: pull-down; purified TasA (bait, 50 µM) incubated with melon seed protein extract at 4 °C overnight, then with nickel-loaded resin (Protino Ni-TED 2000) at 4 °C overnight; elution fractions on SDS-PAGE (CBB), co-eluting band identified by HPLC-ESI-MS/MS; control resin without bait; only the target purified
T1 sequence: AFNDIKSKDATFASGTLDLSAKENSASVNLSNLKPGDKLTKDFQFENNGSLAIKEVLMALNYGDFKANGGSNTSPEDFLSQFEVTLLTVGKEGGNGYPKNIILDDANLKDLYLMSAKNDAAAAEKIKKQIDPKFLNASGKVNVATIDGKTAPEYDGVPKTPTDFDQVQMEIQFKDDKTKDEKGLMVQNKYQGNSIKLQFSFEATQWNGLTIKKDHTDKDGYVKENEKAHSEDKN

[2] = target: oleosin 1 from Arabidopsis thaliana (Arabidopsis thaliana); test: far-Western, overlay or dot blot; purified proteins separated by SDS-PAGE, transferred to PVDF, renatured with decreasing guanidine HCl; membrane incubated with 10 µg purified TasA in protein-binding buffer (100 mM NaCl, 20 mM Tris pH 7.6) at 4 °C overnight; bound TasA detected with anti-TasA antibody; both purified

binding [1]: binds
Molecule: oleosin from melon seeds

binding [2]: binds
B1: amyloid protein TasA (natural protein, B. subtilis, UniProt P54507 28-261, looked up)
chain: T1 sequence
notes: TasA, amyloid protein of the extracellular matrix of Bacillus subtilis biofilms; also called purified TasA
